Drawing on publication doi:10.1101/2022.04.26.489478, this text covers binding for 1 substance.

By UniProt entry, the sequences of proteins in these tests, tags left out. Residues count along the entry.
UniProt O95166, residues 3-116: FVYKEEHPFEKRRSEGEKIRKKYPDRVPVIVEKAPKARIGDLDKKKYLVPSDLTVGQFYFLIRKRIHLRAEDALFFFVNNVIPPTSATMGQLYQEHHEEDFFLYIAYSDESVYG

No constants are given. Whether binding was seen depends on the method and setting. Some entries that bind do so weakly or less than the wild type. Tags and fused reporters may be left off the sequences shown.

The target in this test is T1, mCherry tagged HsC53 (human) (UniProt Q96JB5).
T1 sequence: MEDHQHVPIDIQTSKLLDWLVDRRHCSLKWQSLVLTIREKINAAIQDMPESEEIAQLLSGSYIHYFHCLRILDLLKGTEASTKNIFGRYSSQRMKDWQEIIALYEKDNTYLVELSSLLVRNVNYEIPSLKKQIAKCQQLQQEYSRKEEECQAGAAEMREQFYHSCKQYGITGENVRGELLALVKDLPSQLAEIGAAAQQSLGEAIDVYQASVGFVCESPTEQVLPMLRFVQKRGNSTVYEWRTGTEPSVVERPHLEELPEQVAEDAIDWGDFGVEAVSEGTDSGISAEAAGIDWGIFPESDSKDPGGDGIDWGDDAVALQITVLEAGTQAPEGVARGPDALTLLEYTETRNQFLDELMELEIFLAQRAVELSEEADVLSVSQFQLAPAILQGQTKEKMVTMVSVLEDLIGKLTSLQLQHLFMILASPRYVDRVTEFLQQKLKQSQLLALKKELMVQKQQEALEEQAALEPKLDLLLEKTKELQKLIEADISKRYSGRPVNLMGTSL
Kind of test: microscopy-based on-bead protein-protein interaction assay.

Take GABARAP (from UniProt O95166 3-116): the binding entry is on record as “binds”.
